These are yes or no findings as the source states them, for the method shown. In cells and extracts the contact can be indirect. Some entries that bind do so weakly or less than the wild type. Each block holds one substance with its values, some of them ahead of it.
Key:
[1] = target: Flag-tagged MYOD1 (human) (UniProt P15172); experiment: co-IP; Flag-MYOD1 and His-SMN transiently expressed in HEK293 cells; IP with Dynabeads, immunoblot
[2] = target: survival motor neuron protein (SMN), mouse, endogenous in C2C12 cells (mouse (endogenous in C2C12)) (UniProt P97801); experiment: co-IP; C2C12 cells, day 3 of differentiation; sonicated lysate in IP buffer (10 mM Tris-HCl pH 7.8, 1.0% NP-40, 15 mM NaCl); primary antibody on Dynabeads, 4°C overnight; immunoblot
[3] = target: myoblast determination protein 1 (MYOD1) in B7-M iPSC-derived myogenic cells (human (human iPSC-derived cells; species of the transgene not stated)) (UniProt P15172); experiment: co-IP; B7-M iPSC-derived myogenic cells, day 3; sonicated lysate in IP buffer (10 mM Tris-HCl pH 7.8, 1.0% NP-40, 15 mM NaCl); primary antibody on Dynabeads, 4°C overnight; immunoblot
[4] = target: myoblast determination protein 1 (MyoD1), mouse, endogenous in C2C12 cells (mouse (endogenous in C2C12)) (UniProt P10085); experiment: co-IP; C2C12 cells, day 3 of differentiation; sonicated lysate in IP buffer (10 mM Tris-HCl pH 7.8, 1.0% NP-40, 15 mM NaCl); primary antibody on Dynabeads, 4°C overnight; immunoblot

Chains of the proteins cited; added tags and fusions are not shown.
UniProt P15172: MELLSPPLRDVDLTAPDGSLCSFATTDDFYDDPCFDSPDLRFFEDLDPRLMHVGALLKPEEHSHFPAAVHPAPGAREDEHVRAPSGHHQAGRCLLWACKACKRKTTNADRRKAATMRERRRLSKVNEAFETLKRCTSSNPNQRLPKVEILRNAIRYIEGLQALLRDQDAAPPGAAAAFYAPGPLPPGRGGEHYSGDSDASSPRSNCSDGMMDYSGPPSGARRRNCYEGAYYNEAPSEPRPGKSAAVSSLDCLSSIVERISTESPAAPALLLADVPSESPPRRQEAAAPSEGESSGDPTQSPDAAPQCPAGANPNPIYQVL
UniProt P97801: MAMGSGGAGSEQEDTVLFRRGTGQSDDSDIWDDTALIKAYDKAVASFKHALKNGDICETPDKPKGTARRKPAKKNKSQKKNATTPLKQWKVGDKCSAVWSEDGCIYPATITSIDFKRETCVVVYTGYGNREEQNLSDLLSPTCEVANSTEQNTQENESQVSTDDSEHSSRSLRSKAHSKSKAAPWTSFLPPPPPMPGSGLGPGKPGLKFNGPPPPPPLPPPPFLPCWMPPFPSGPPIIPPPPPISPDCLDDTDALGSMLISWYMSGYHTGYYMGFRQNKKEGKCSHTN
UniProt P10085: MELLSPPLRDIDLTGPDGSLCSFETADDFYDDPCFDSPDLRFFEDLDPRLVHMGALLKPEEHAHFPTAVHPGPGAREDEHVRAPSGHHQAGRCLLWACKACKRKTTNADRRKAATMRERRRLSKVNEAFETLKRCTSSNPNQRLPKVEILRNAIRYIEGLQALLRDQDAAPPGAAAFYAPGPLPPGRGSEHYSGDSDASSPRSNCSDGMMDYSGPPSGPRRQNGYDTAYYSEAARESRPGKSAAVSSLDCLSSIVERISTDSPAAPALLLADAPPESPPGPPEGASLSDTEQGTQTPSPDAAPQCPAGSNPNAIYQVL
UniProt Q16637: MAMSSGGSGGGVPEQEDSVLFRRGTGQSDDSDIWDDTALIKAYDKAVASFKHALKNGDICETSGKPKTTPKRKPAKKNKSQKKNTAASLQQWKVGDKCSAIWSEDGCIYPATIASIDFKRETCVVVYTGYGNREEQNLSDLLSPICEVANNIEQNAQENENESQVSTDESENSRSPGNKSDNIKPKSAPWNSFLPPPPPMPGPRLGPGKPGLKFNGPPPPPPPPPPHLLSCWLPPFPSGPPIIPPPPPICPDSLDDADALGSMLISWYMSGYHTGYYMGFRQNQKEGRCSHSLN

binding [1]: binds
Substance: His-tagged SMN (from UniProt Q16637 1-294)

Substance: myoblast determination protein 1 (MyoD1), mouse, endogenous in C2C12 cells (from UniProt P10085 1-318)
binding [2]: binds

Substance: survival motor neuron protein (SMN), human, endogenous in B7-M iPSC-derived myogenic cells (from UniProt Q16637 1-294)
binding [3]: binds

Substance: survival motor neuron protein (SMN), mouse, endogenous in C2C12 cells (from UniProt P97801 1-288)
binding [4]: binds

— article PMC9834662
